Results deposited as PubChem BioAssay AID1259405 (NCATS, 2018).

Purpose: 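Silenced genes that increase secreted GFP made by CHO cells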 (primary screen)
System: Chinese hamster CHO-K1 ovary cells with stable secreted eGFP expression
Reagent: single siRNA against mouse genes, 0.8 pmol siRNA per well (2 µl of 400 nM stock)
Timing: 3 days
Measured: 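Per-well intracellular GFP measured by laser scanning cytometry, plus viability from ATP luminescence, each relative to plate median of non-targeting control wells, in %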
Scale: GFP, % of control: higher = more GFP per well, higher productivity; viability (ATP), % of control: higher = more viable cells (more ATP)
Call rule: 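a knock-down is called active if GFP reaches 120% or more of non-targeting control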
This is an unselected part of about 50,000 reagents. Of all reagents, about 4,000 (8%) are marked active. 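Mouse siRNA library applied to hamster cells; one well for each siRNA.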 Reagents against one gene are numbered here.

Which result is listed for 4930544G11Rik (RIKEN cDNA 4930544G11 gene) #1?
GFP, % of control: 64.1; viability (ATP), % of control: 41.6; Call: inactive

What is on record for 4930544G11Rik (RIKEN cDNA 4930544G11 gene) #2?
GFP, % of control: 40.7; viability (ATP), % of control: 33; Call: inactive

With 4930544G11Rik (RIKEN cDNA 4930544G11 gene) #3, what was measured?
GFP, % of control: 87.2; viability (ATP), % of control: 67.1; Call: inactive

For Rs1 (retinoschisis (X-linked, juvenile) 1 (human)) #1, how do the results read?
GFP, % of control: 58.9; viability (ATP), % of control: 89.9; Call: inactive

What is on record for Rs1 (retinoschisis (X-linked, juvenile) 1 (human)) #2?
GFP, % of control: 58.4; viability (ATP), % of control: 69.3; Call: inactive

What did the screen give for Rs1 (retinoschisis (X-linked, juvenile) 1 (human)) #3?
GFP, % of control: 75.7; viability (ATP), % of control: 98.1; Call: inactive

For Tyw5 (tRNA-yW synthesizing protein 5) #1, how do the results read?
GFP, % of control: 71.3; viability (ATP), % of control: 75.7; Call: inactive

How did the screen score Tyw5 (tRNA-yW synthesizing protein 5) #2?
GFP, % of control: 62; viability (ATP), % of control: 64.1; Call: inactive

What did the screen give for Tyw5 (tRNA-yW synthesizing protein 5) #3?
GFP, % of control: 54.3; viability (ATP), % of control: 69.3; Call: inactive

How did the screen score Isg20l2 (interferon stimulated exonuclease gene 20-like 2) #1?
GFP, % of control: 47.5; viability (ATP), % of control: 45.7; Call: inactive

What is on record for Isg20l2 (interferon stimulated exonuclease gene 20-like 2) #2?
GFP, % of control: 57.8; viability (ATP), % of control: 70; Call: inactive

How did the screen score Isg20l2 (interferon stimulated exonuclease gene 20-like 2) #3?
GFP, % of control: 76.3; viability (ATP), % of control: 86.4; Call: inactive

With Snx33 (sorting nexin 33) #1, what was measured?
GFP, % of control: 48.3; viability (ATP), % of control: 31.9; Call: inactive

What is on record for Snx33 (sorting nexin 33) #2?
GFP, % of control: 58.7; viability (ATP), % of control: 36.4; Call: inactive

For Snx33 (sorting nexin 33) #3, what was measured?
GFP, % of control: 68.1; viability (ATP), % of control: 60.6; Call: inactive

Which result is listed for Ociad2 (OCIA domain containing 2) #1?
GFP, % of control: 94.5; viability (ATP), % of control: 76.2; Call: inactive

For Ociad2 (OCIA domain containing 2) #2, how do the results read?
GFP, % of control: 74.8; viability (ATP), % of control: 104; Call: inactive

What is on record for Ociad2 (OCIA domain containing 2) #3?
GFP, % of control: 86.2; viability (ATP), % of control: 55.1; Call: inactive

For Klra7 (killer cell lectin-like receptor, subfamily A, member 7) #1, how do the results read?
GFP, % of control: 64.7; viability (ATP), % of control: 65.1; Call: inactive

For Klra7 (killer cell lectin-like receptor, subfamily A, member 7) #2, how do the results read?
GFP, % of control: 143; viability (ATP), % of control: 103; Call: active

With Klra7 (killer cell lectin-like receptor, subfamily A, member 7) #3, how do the results read?
GFP, % of control: 110; viability (ATP), % of control: 81.2; Call: inactive

What is on record for Dse (dermatan sulfate epimerase) #1?
GFP, % of control: 58.7; viability (ATP), % of control: 72.5; Call: inactive

With Dse (dermatan sulfate epimerase) #2, how do the results read?
GFP, % of control: 34.4; viability (ATP), % of control: 59.1; Call: inactive

For Dse (dermatan sulfate epimerase) #3, what was measured?
GFP, % of control: 69.2; viability (ATP), % of control: 84.6; Call: inactive

What is on record for Gzmb (granzyme B) #1?
GFP, % of control: 60.5; viability (ATP), % of control: 138; Call: inactive

For Gzmb (granzyme B) #2, what does the deposit list?
GFP, % of control: 66; viability (ATP), % of control: 78.1; Call: inactive

How did the screen score Gzmb (granzyme B) #3?
GFP, % of control: 59.7; viability (ATP), % of control: 72.3; Call: inactive

What is on record for Btnl9 (butyrophilin-like 9) #1?
GFP, % of control: 73.2; viability (ATP), % of control: 91.5; Call: inactive

For Btnl9 (butyrophilin-like 9) #2, how do the results read?
GFP, % of control: 25.8; viability (ATP), % of control: 42.2; Call: inactive

Which result is listed for Btnl9 (butyrophilin-like 9) #3?
GFP, % of control: 77; viability (ATP), % of control: 57.2; Call: inactive

For Klc4 (kinesin light chain 4) #1, what was measured?
GFP, % of control: 106; viability (ATP), % of control: 80; Call: inactive

What did the screen give for Klc4 (kinesin light chain 4) #2?
GFP, % of control: 91.1; viability (ATP), % of control: 84.9; Call: inactive

How did the screen score Klc4 (kinesin light chain 4) #3?
GFP, % of control: 87.6; viability (ATP), % of control: 72.1; Call: inactive

With Sel1l3 (sel-1 suppressor of lin-12-like 3 (C. elegans)) #1, how do the results read?
GFP, % of control: 65.1; viability (ATP), % of control: 83.5; Call: inactive

What did the screen give for Sel1l3 (sel-1 suppressor of lin-12-like 3 (C. elegans)) #2?
GFP, % of control: 134; viability (ATP), % of control: 103; Call: active

For Sel1l3 (sel-1 suppressor of lin-12-like 3 (C. elegans)) #3, how do the results read?
GFP, % of control: 75.6; viability (ATP), % of control: 48.7; Call: inactive

With Zhx1 (zinc fingers and homeoboxes 1) #1, how do the results read?
GFP, % of control: 64.6; viability (ATP), % of control: 64.9; Call: inactive

What did the screen give for Zhx1 (zinc fingers and homeoboxes 1) #2?
GFP, % of control: 82.8; viability (ATP), % of control: 83.3; Call: inactive

How did the screen score Zhx1 (zinc fingers and homeoboxes 1) #3?
GFP, % of control: 105; viability (ATP), % of control: 88.7; Call: inactive

For Rnf216 (ring finger protein 216) #1, what was measured?
GFP, % of control: 103; viability (ATP), % of control: 73.7; Call: inactive

For Rnf216 (ring finger protein 216) #2, what was measured?
GFP, % of control: 82; viability (ATP), % of control: 73.8; Call: inactive

How did the screen score Rnf216 (ring finger protein 216) #3?
GFP, % of control: 40.9; viability (ATP), % of control: 65; Call: inactive

How did the screen score Yipf4 (Yip1 domain family, member 4) #1?
GFP, % of control: 91.5; viability (ATP), % of control: 90.7; Call: inactive

Which result is listed for Yipf4 (Yip1 domain family, member 4) #2?
GFP, % of control: 49; viability (ATP), % of control: 57.5; Call: inactive

What is on record for Yipf4 (Yip1 domain family, member 4) #3?
GFP, % of control: 66.5; viability (ATP), % of control: 76; Call: inactive

For Ctsf (cathepsin F) #1, what was measured?
GFP, % of control: 69.2; viability (ATP), % of control: 54.7; Call: inactive

What is on record for Ctsf (cathepsin F) #2?
GFP, % of control: 50.4; viability (ATP), % of control: 26.1; Call: inactive

Which result is listed for Ctsf (cathepsin F) #3?
GFP, % of control: 51.5; viability (ATP), % of control: 68.8; Call: inactive

With Cpz (carboxypeptidase Z) #1, what does the deposit list?
GFP, % of control: 105; viability (ATP), % of control: 88; Call: inactive

For Cpz (carboxypeptidase Z) #2, what was measured?
GFP, % of control: 76.7; viability (ATP), % of control: 94.5; Call: inactive

Which result is listed for Cpz (carboxypeptidase Z) #3?
GFP, % of control: 80.9; viability (ATP), % of control: 53.7; Call: inactive

With Hsd11b1 (hydroxysteroid 11-beta dehydrogenase 1) #1, what does the deposit list?
GFP, % of control: 76.8; viability (ATP), % of control: 73.6; Call: inactive

What did the screen give for Hsd11b1 (hydroxysteroid 11-beta dehydrogenase 1) #2?
GFP, % of control: 65; viability (ATP), % of control: 77.8; Call: inactive

For Hsd11b1 (hydroxysteroid 11-beta dehydrogenase 1) #3, what does the deposit list?
GFP, % of control: 59.6; viability (ATP), % of control: 66.9; Call: inactive

Hits, of those listed so far:
Klra7 (killer cell lectin-like receptor, subfamily A, member 7) #2 → GFP, % of control = 143; viability (ATP), % of control = 103; Call = active
Sel1l3 (sel-1 suppressor of lin-12-like 3 (C. elegans)) #2 → GFP, % of control = 134; viability (ATP), % of control = 103; Call = active
